Earlier results on one molecule are cited in patent publication US8790735B2, “Method of preferentially reducing absorption of saturated fat and compositions” (General Mills, Inc., priority 2005, dated 2014).

For the series the following is noted: 25° C.; cited from earlier work.

For the molecule `OC[C@H]1O[C@@H]2O[C@H]3[C@H](O)[C@@H](O)[C@@H](O[C@H]4[C@H](O)[C@@H](O)[C@@H](O[C@H]5[C@H](O)[C@@H](O)[C@@H](O[C@H]6[C@H](O)[C@@H](O)[C@@H](O[C@H]7[C@H](O)[C@@H](O)[C@@H](O[C@H]1[C@H](O)[C@H]2O)O[C@@H]7CO)O[C@@H]6CO)O[C@@H]5CO)O[C@@H]4CO)O[C@@H]3CO` [α-cyclodextrin, alpha-cyclodextrin], the solubility in water result is given as “about 14 gm/100 mL”.
